The record followed here is patent US20250304693A1.

Protein sequences, listed by entry. Tags and fused reporters are not part of them. Residues count along the entry.
UniProt Q7Z6A9, residues 31-157: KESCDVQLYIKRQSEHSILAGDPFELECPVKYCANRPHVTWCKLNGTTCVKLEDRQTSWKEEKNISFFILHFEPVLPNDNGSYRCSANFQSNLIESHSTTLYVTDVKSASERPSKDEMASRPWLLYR

Residue numbers refer to the chain shown, from its start. In names and notes the source's numbering stands. Results are given in words; binding and its absence hold for the method and conditions named. Some results given as binding are weak or reduced against the parent protein; the word gives no strength.

To fix the notation:
B1: HFB6-3hz24-hG4P-C109S (antibody, V domains shown)
VH: QVQLQESGPGLVKPSGTLSLTCADSGFNIKDTYIHWVRQPPGKGLEWIGRIDPANGFTRYNPSLKSRVTISSDKSKNQASLKLSSVTAADTAVYYCAREDGYPYYTLDSWGQGTTVTVSS
VL: DIVMTQSPDSLALSLGERATINCKSSQSLLDVDGKTYLNWFQQKPGQPPKRLIYLVSKLDSGVPDRFSGSGSGTDFTLTISSVQAEDVAVYYCWQGTHFPRTFGQGTKLEIK
B2: HFB6-3hz25-hG4P-C109S (antibody, V domains shown)
VH: B1 VH with N28S, K30S
VL: B1 VL
B3: HFB6-3hz24-hG4P-C109A (antibody, V domains shown)
VH: B1 VH with S109A
VL: B1 VL
B4: HFB6-3hz25-hG4P-C109A (antibody, V domains shown)
VH: B1 VH with N28S, K30S, S109A
VL: B1 VL
B5: HFB6-2hz8-hG4P (antibody, V domains shown)
VH: QVQLVQSGAEVKKPGASVKVSCKASGVNIKDTYMYWVRQAPGQGLEWIGRIDPANGYTRYAQKFQGRVTMTADTSTSTVYMELSSLRSEDTAVYYCAVNDGYFEYFDVWGQGTTVTVSS
VL: EIVLTQSPGTLSLSPGERATLSCRSSQSLLDSDGKPYLNWLQQKPGQAPRRLIYLVSKLDSGIPDRFSGSGSGTDFTLTISRLEPEDLAVYYCWQDTHFPRTFGQGTKLEIK
B6: HFB6-2hz16-hG4P (antibody, V domains shown)
VH: B5 VH with V68A, M70V, M81L
VL: B1 VL with L13V, V32S, T36P, F41L, P48S, G96D
B7: HFB6-2hz0-hG4P (antibody, V domains shown)
VH: B5 VH with A16S, T58A, V68A, M70I, T74E, V79A, M81L
VL: B5 VL
B8: HFB6-2hz17-hG4P (antibody, V domains shown)
VH: B5 VH with A16S, T58A, V68A, M70I, T74E, V79A, M81L
VL: B1 VL with L13V, V32S, T36P, F41L, P48S, G96D
B9: HFB6-2hz11-hG4P (antibody, V domains shown)
VH: B5 VH with A16S, T58A, V68A, M70V, T74K, V79A, M81L
VL: B5 VL
B10: HFB6-2hz9-hG4P (antibody, V domains shown)
VH: B5 VH with V68A, M70V, M81L
VL: B5 VL
B11: HFB6-2hz12-hG4P (antibody, V domains shown)
VH: EVQLLESGGGLVQPGGSLRLSCAASGVNIKDTYMYWVRQAPGKGLEWIGRIDPANGYTRYADSVKGRFTISADNSKNTLYLQMNSLRAEDTAVYYCAVNDGYFEYFDVWGQGTTVTVSS
VL: B5 VL
B12: HFB6-2hz15-hG4P (antibody, V domains shown)
VH: B5 VH
VL: B1 VL with L13V, V32S, T36P, F41L, P48S, G96D
B13: HFB6-2hz18-hG4P (antibody, V domains shown)
VH: B5 VH with A16S, T58A, V68A, M70V, T74K, V79A, M81L
VL: B1 VL with L13V, V32S, T36P, F41L, P48S, G96D
B14: HFB6-2hz19-hG4P (antibody, V domains shown)
VH: B11 VH
VL: B1 VL with L13V, V32S, T36P, F41L, P48S, G96D
B15: HFB6-2hz20-hG4P (antibody, V domains shown)
VH: QVQLQESGPGLVKPSGTLSLTCAASGVNIKDTYMYWVRQPPGKGLEWIGRIDPANGYTRYNPSFKSRATVSADKSKNQASLKLSSLTAADTAVYYCAVNDGYFEYFDVWGQGTTVTVSS
VL: B1 VL with L13V, V32S, T36P, F41L, P48S, G96D
B16: HFB6-3hz20-hG4P (antibody, V domains shown)
VH: B1 VH with L64F, V68A, S109C
VL: B1 VL

One assay has as its target cynomolgus BTLA on cells (cynomolgus). The experiment in a line: FACS on Expi293 cells overexpressing cynomolgus BTLA.
Take B1: the binding entry was “binds”.
Same read-out and setting: under B2 stands “binds”; under B3, “binds”; under B4, “binds”.

The target of a further assay is recombinant human BTLA (human) (UniProt Q7Z6A9). Briefly: ELISA (Ab binding to hBTLA-his), x axis log [hBTLA-his] nM, OD450. In general terms: ELISA stands for enzyme-linked immunosorbent assay.
For the molecule B5, the binding result is listed as “binds”.
On the same count and under the same terms, to B6 belongs “binds”; to B7, “binds”; to B8, “binds”.
B9: the binding entry is listed as “binds”.
The same measure, in the same setting: to B10 belongs “binds”; to B11, “binds”; to B12, “binds”.
Same read-out and setting: to B13 belongs “binds”.
Still for that read-out and setting: under B14 stands “binds”.
For the molecule B15, the binding result is recorded as “binds”.

For a further assay the target is unchanged. The experiment in a line: ELISA on recombinant human BTLA.
Consider B5, for which the binding entry is “binds”.
Consider B6, for which the binding result is “binds”.
Same read-out and setting: under B7 stands “binds”; under B8, “binds”; under B9, “binds”.
Turning to B10, the binding entry is recorded as “binds”.
Same read-out and setting: to B11 belongs “binds”.
B12: the binding result is listed as “binds”.
Still for that read-out and setting: under B13 stands “binds”.
With B14, the binding result is recorded as “binds”.
Still for that read-out and setting: to B15 belongs “binds”.

A further assay deals with cynomolgus BTLA on cells (cynomolgus). The experiment in a line: FACS, Expi293.cynoBTLA cells, AF647 anti-human IgG Fc secondary antibody, x axis log[Ab] nM. In general terms: Flow cytometry measures light scatter and fluorescence of single cells or particles in a stream.
For B1, the binding result was “binds”.
For B16, the binding entry is on record as “binds”.
In the case of B2, the binding entry is on record as “binds”.
Still for that read-out and setting: to B3 belongs “binds”; to B4, “binds”.

For a further assay the target is unchanged. The experiment in a line: FACS on Expi293 cynomolgus BTLA expressing cells (FIG. 11B).
Regarding B1, the binding result is given as “binds”.
Still for that read-out and setting: to B16 belongs “binds”; to B2, “binds”.
On the same count and under the same terms, to B3 belongs “binds”.
On the same count and under the same terms, to B4 belongs “binds”.
